PubChem BioAssay AID1487 (National Center for Advancing Translational Sciences (NCATS), 2009)
The list shows a part of the results. Further columns of the screen follow, without active or inactive calls. Most of these compounds were active or inconclusive in the main read-out, so they are no random draw. Potencies come from curve fits of mixed quality, noted in brackets.

Experiment: qHTS Assay for Modulators of Lamin A Splicing
Conditions: HeLa LMNA splicing GFP/RFP minigene ratio, 48 h
How it was run: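 Read-out is the ratio of GFP to DsRed2 object intensity, acquired by 488 nm laser-scanning cytometry on HeLa lamin A-EGFP minigene reporter cells. Compound incubation 48 hrs at 37 °C in Opti-MEM with 2% FBS; DMSO 0.5% final.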

[1] = measured here: GFP splicing reporter channel
[2] = measured here: RFP viability control channel

SMILES	AC50 [1]	AC50 [2]
O=C(NCc1ccco1)c1cc2ccccc2o1	31.6 µM [rising, single point]	–
CCOC(=O)/C(C#N)=C/c1cn(CCC(=O)O)nc1-c1ccc(OC)cc1	–	2.82 µM [rising, partial curve, poor fit]
COc1ccc(S(=O)(=O)N2CCN(c3ccc4nnc(-c5ccc(F)cc5)n4n3)CC2)cc1	35.5 µM [rising, single point]	–
CCOc1ccc(C(=O)NC2CC(=O)N(c3ccc(C)cc3)C2)cc1OCC (centres undefined)	14.1 µM [falling, single point]	–
COc1ccc(/C=N/NC(=O)c2nc(-c3ccccc3)cc(-c3ccccc3)n2)cc1O	–	31.6 µM [rising, single point]
C[C@@H]1CN(C(=O)c2nc3ccc(Cl)cn3c2CN[C@H]2CCCCNC2=O)C[C@H](C)O1	–	0.501 µM [falling, full curve, poor fit]
COc1ccc(/C=N/Nc2nc(N)cc(Cl)n2)cc1OC	12.6 µM [rising, partial curve, poor fit]	–
Cc1ccc(-n2c(C)cc(C)c(C#N)c2=O)cc1	–	0.794 µM [falling, partial curve]
COc1ccccc1OCC(=O)NCCSCc1ccccc1Cl	11.2 µM [rising, partial curve]	15.8 µM [rising, single point]
Cc1ccc(NC(=O)CCOc2ccccc2)cc1S(=O)(=O)Nc1ccccc1Cl	12.6 µM [rising, single point]	28.2 µM [rising, single point]
Cc1ccccc1CNC(=O)CN1C(=O)C2CCCCN2c2ccc(C(=O)N3CCCC3)cc21 (centres undefined)	5.01 µM [falling, partial curve, poor fit]	–
CCC(C)(C)n1nnnc1C(c1cccs1)N1CCc2ccccc21 (centres undefined)	–	11.2 µM [rising, partial curve, poor fit]
O=C(c1ccc(-c2ccccc2)cc1)C1CCCN(C(=O)c2ccncc2)C1 (centres undefined)	35.5 µM [rising, single point]	–
CC1CC(C)CN(CCOc2ccccc2-c2ccccc2)C1 (centres undefined)	–	12.6 µM [rising, single point]
O=C(Nc1ccc2c(c1)N(C1CCCC1)C(=O)c1ccccc1S2)c1ccccc1F	8.91 µM [falling, partial curve, poor fit]	–
COC(=O)c1ccccc1NC(=O)c1cc2cc(C)ccc2n1C	4.47 µM [falling, partial curve]	5.62 µM [falling, single point]
CCS(=O)(=O)N1Cc2ccccc2CC1C(=O)Nc1nccs1 (centres undefined)	–	2.24 µM [rising, full curve, poor fit]
Cc1ccc(S(=O)(=O)N2CCC(C(=O)N3Cc4ccccc4C3)CC2)cc1	20 µM [rising, single point]	22.4 µM [rising, single point]
c1ccc(CN2CCN(c3ncnc4c3cnn4-c3ccccc3)CC2)cc1	–	0.178 µM [falling, full curve, poor fit]

SMILES	AC50 [1]	AC50 [2]
CCc1cc(C(=O)Cc2ccc(F)cc2)c(O)cc1O	–	12.6 µM [rising, partial curve]
COC(=O)c1ccccc1NC(=O)c1cnn2cccnc12	12.6 µM [falling, partial curve]	20 µM [falling, partial curve, poor fit]
Cc1cc(NC(=O)c2noc3c2CCCC3)nn1Cc1ccc(Cl)cc1	–	35.5 µM [rising, single point]
O=C(NCc1ccc(F)cc1)c1ccc(CS(=O)(=O)Cc2ccc(F)cc2)o1	–	12.6 µM [rising, partial curve]
COc1ccc2c(c1)CC[C@@H]1[C@@H]2CC[C@]2(C)C(=O)CC[C@@H]12	12.6 µM [rising, single point]	35.5 µM [rising, single point]
CCSc1ccccc1C(=O)Nc1ccc(-c2nc3ccccc3s2)c(O)c1	12.6 µM [falling, single point]	10 µM [falling, single point]
CCOCCCNS(=O)(=O)c1ccc(NC(=O)c2ccc(OC)c([N+](=O)[O-])c2)cc1	–	0.794 µM [falling, full curve, poor fit]
CSCCC(NC(=O)c1cncc(Br)c1)C(=O)O (centres undefined)	11.2 µM [rising, partial curve, poor fit]	–
O=c1[nH]c2cc3c(cc2cc1CN(Cc1cccnc1)C(=S)NCc1ccco1)OCO3	–	0.0141 µM [falling, full curve, poor fit]
Cc1ccccc1Nc1nnc(SCC(=O)c2cc3ccccc3o2)s1	–	35.5 µM [rising, single point]
Cc1ccc(NC(=O)CSc2ccc(-c3ccccn3)nn2)cc1	10 µM [falling, partial curve]	–
Fc1cccc2sc(Nc3nc4cc5c(cc4s3)OCCO5)nc12	11.2 µM [rising, partial curve]	15.8 µM [rising, partial curve]
CC(=O)/C(=N\Nc1ccccc1)Sc1cccc2cccnc12	–	35.5 µM [rising, single point]
Cc1cn([C@H]2C[C@@H](N=[N+]=[N-])[C@@H](CO)O2)c(=O)[nH]c1=O	5.62 µM [falling, partial curve, poor fit]	5.62 µM [falling, single point]
CCc1ccccc1NC(=S)N(Cc1cccc(C)c1)c1cccnc1	–	0.00316 µM [falling, full curve, poor fit]
COCC(C)n1c(C)cc(C(=O)COC(=O)c2c(NC(C)=O)sc(C)c2C)c1C (centres undefined)	–	3.98 µM [rising, partial curve, poor fit]
COc1ccc(N=C2SC(CC(=O)Nc3ccccc3OC)C(=O)N2Cc2ccco2)cc1 (centres undefined)	17.8 µM [rising, single point]	35.5 µM [rising, single point]
CC(NC(=O)CCCCCCN1C(=O)c2ccccc2C1=O)c1ccc2c(c1)CCCC2 (centres undefined)	–	31.6 µM [rising, single point]
CCCNS(=O)(=O)c1ccc(CCC(=O)N2CCN(c3ccc(F)cc3)CC2)cc1	14.1 µM [rising, single point]	20 µM [rising, single point]

Part of the list above, bar-delimited.
SMILES | AC50 [1] | AC50 [2]
COc1ccc(S(=O)(=O)N2CCN(c3ccc4nnc(-c5ccc(F)cc5)n4n3)CC2)cc1 | 35.5 µM [rising, single point] | –
CCOc1ccc(C(=O)NC2CC(=O)N(c3ccc(C)cc3)C2)cc1OCC (centres undefined) | 14.1 µM [falling, single point] | –
COc1ccc(/C=N/NC(=O)c2nc(-c3ccccc3)cc(-c3ccccc3)n2)cc1O | – | 31.6 µM [rising, single point]
C[C@@H]1CN(C(=O)c2nc3ccc(Cl)cn3c2CN[C@H]2CCCCNC2=O)C[C@H](C)O1 | – | 0.501 µM [falling, full curve, poor fit]
COc1ccc(/C=N/Nc2nc(N)cc(Cl)n2)cc1OC | 12.6 µM [rising, partial curve, poor fit] | –

Following part

SMILES	AC50 [1]	AC50 [2]
COc1cc(Cl)c(C)cc1NC(=O)CSc1ccc(NC(C)=O)cc1	–	35.5 µM [rising, single point]
Cc1ccc2nc(COc3ccccc3NC(=O)C(C)(C)C)cc(=O)n2c1	–	7.08 µM [falling, partial curve, poor fit]
COc1ccccc1NC(=O)Nc1ccc(Cc2ccncc2)cc1	–	11.2 µM [rising, single point]
COC(=O)NC(=C(Cl)Cl)S(=O)(=O)c1ccccc1	3.16 µM [falling, partial curve]	0.501 µM [falling, single point]
CC(C)Cn1c(C(C)NC(=O)Cc2ccccc2)nc2ccccc21 (centres undefined)	–	31.6 µM [rising, single point]
O=C(Cc1ccc(F)cc1)NCc1ccc2c(c1)CCN2C(=O)c1ccc(F)cc1	–	3.98 µM [rising, full curve]
COc1ccccc1N1CCN(CCCCOc2ccc(F)cc2)CC1	–	22.4 µM [rising, single point]
COc1cccc(-n2c(SCC(=O)Nc3c(C)cc(C)cc3C)nc3c([nH]c4ccccc43)c2=O)c1	–	35.5 µM [falling, single point]
Cc1ccc(C(c2nnnn2CS(=O)(=O)c2ccc(C)cc2)N2CCCC2)cc1 (centres undefined)	1.26 µM [falling, full curve, poor fit]	–
CC[N+](CC)(CC)CC[C@](O)(c1ccccc1)C1CCCCC1	5.01 µM [rising, partial curve, poor fit]	8.91 µM [falling, single point]
COc1cc(NC(=O)Nc2ccc(C)cc2)cc([N+](=O)[O-])c1	–	17.8 µM [rising, partial curve]
CN(C)c1ccc(/C=N/NC(=O)C(=O)/C=C2\NC3(CCCC3)Cc3ccccc32)cc1	7.08 µM [rising, partial curve]	20 µM [rising, partial curve]
O=C(C(Sc1ccccc1)c1ccccc1)N1CCN(c2ccccc2F)CC1 (centres undefined)	35.5 µM [rising, single point]	35.5 µM [rising, single point]
CCN(CC)S(=O)(=O)c1cc(C(=O)Nc2ccccc2[N+](=O)[O-])ccc1Cl	25.1 µM [falling, single point]	35.5 µM [falling, single point]
COc1ccc2[nH]cc(CCNc3nc(-c4ccc(N(C)C)cc4)nc4ccccc34)c2c1	11.2 µM [falling, partial curve]	10 µM [falling, partial curve]
CCN(CC)CC(=O)Nc1sc2c(c1C(=O)c1ccccc1C)CCC2	12.6 µM [rising, single point]	–
CN(C)c1ccc(CNc2ccc3c(c2)ncn3C)cc1	–	35.5 µM [rising, single point]
CCn1nc(C)c(CNC(=O)CC2C(=O)NCCN2Cc2ccc(C)o2)c1C (centres undefined)	2.82 µM [falling, partial curve, poor fit]	–
C=CCC1S/C(=N/N=C/c2cccs2)NC1=O (centres undefined)	0.891 µM [falling, full curve, poor fit]	–
